According to the supplement of paper PMC10849652:
Some of the results follow.

Chains of the proteins cited; added tags and fusions are not shown. Lines headed by an entry give the natural chain unless they say otherwise; changes in a name come on top.
UniProt Q99640: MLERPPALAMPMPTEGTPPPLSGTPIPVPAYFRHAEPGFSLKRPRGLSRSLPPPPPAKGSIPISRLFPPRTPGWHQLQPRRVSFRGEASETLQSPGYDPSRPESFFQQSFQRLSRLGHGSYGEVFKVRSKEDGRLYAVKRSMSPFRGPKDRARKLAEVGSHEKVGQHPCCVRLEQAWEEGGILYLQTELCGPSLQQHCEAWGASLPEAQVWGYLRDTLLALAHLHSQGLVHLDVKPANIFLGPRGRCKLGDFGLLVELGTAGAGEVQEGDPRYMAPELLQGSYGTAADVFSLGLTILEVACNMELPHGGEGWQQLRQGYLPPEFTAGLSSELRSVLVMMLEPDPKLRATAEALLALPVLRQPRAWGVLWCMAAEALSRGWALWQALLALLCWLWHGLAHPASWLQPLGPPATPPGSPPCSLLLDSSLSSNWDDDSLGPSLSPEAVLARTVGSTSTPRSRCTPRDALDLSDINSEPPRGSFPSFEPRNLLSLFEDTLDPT
UniProt P48736: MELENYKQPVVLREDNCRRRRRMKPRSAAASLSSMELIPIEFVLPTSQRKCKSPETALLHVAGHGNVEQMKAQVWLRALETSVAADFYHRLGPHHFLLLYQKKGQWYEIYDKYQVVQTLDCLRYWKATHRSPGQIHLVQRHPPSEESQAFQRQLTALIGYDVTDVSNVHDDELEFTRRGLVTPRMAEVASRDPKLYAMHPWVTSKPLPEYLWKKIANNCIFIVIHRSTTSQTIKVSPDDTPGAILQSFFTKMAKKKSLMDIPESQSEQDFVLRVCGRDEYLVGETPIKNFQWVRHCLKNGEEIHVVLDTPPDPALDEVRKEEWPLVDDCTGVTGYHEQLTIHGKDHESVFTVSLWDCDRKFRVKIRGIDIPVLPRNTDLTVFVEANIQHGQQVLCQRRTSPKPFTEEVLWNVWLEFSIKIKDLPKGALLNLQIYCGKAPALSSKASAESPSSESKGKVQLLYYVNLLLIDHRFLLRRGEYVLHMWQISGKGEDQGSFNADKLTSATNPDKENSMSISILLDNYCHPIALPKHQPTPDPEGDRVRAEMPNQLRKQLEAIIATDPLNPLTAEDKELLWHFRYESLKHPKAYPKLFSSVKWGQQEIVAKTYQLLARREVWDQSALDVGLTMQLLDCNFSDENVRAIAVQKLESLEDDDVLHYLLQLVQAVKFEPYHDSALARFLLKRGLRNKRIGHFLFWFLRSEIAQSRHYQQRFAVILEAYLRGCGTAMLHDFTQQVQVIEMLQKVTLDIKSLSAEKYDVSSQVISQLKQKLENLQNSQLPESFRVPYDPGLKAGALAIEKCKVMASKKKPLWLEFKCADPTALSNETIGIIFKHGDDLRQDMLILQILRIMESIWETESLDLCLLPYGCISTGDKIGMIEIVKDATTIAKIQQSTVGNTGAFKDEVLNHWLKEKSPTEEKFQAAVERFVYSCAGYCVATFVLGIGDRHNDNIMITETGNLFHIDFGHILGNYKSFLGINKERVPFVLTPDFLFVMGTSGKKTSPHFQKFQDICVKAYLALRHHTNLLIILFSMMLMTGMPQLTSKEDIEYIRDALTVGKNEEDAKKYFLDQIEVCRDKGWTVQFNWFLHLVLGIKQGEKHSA
UniProt Q8N4B1: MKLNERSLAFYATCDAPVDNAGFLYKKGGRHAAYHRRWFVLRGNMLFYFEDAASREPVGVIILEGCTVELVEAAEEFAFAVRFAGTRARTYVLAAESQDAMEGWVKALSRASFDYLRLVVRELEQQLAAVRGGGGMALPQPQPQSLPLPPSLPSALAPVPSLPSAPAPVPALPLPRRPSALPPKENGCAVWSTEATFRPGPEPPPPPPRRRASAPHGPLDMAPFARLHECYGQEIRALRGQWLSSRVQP
UniProt P08567: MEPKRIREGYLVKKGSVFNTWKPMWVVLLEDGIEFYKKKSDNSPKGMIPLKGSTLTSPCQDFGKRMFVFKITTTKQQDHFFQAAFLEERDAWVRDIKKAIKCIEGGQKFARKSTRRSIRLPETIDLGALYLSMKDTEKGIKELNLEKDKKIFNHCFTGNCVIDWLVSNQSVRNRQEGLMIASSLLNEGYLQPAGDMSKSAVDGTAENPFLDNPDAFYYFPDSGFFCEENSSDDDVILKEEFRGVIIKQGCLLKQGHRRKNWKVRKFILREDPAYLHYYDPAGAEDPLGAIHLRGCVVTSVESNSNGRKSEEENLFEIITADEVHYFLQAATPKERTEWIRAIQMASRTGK
UniProt Q8WXW3: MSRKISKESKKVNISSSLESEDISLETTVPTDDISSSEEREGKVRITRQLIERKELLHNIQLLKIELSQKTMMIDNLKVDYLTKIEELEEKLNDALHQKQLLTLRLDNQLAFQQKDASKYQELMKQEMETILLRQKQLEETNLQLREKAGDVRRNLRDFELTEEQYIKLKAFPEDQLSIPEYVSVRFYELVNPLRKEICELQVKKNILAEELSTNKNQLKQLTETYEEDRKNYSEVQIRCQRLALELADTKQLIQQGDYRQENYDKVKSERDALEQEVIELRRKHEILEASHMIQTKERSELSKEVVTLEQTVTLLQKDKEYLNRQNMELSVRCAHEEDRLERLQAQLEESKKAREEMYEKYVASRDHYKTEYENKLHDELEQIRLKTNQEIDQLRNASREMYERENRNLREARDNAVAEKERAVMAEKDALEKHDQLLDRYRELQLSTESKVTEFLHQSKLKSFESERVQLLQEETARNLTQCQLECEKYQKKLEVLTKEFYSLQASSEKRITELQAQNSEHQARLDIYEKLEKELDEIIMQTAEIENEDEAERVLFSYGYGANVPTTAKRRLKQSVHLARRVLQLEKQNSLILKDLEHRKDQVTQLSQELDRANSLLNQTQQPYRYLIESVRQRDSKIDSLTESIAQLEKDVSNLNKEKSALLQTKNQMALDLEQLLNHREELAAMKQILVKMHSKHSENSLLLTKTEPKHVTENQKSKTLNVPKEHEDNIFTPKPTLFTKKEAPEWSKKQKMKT
UniProt P16118: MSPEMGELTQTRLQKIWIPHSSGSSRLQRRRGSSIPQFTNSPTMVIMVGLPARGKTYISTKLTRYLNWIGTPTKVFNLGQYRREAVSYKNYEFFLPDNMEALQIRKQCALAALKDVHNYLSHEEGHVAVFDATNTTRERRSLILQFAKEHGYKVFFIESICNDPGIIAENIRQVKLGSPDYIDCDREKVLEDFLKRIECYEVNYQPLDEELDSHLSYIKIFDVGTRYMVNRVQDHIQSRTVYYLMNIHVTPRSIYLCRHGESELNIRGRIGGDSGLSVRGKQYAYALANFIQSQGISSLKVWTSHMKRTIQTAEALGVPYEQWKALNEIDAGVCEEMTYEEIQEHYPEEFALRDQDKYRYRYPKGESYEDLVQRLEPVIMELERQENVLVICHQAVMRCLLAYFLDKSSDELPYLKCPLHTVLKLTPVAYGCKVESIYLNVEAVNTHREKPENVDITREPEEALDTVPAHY
UniProt Q8TEQ8: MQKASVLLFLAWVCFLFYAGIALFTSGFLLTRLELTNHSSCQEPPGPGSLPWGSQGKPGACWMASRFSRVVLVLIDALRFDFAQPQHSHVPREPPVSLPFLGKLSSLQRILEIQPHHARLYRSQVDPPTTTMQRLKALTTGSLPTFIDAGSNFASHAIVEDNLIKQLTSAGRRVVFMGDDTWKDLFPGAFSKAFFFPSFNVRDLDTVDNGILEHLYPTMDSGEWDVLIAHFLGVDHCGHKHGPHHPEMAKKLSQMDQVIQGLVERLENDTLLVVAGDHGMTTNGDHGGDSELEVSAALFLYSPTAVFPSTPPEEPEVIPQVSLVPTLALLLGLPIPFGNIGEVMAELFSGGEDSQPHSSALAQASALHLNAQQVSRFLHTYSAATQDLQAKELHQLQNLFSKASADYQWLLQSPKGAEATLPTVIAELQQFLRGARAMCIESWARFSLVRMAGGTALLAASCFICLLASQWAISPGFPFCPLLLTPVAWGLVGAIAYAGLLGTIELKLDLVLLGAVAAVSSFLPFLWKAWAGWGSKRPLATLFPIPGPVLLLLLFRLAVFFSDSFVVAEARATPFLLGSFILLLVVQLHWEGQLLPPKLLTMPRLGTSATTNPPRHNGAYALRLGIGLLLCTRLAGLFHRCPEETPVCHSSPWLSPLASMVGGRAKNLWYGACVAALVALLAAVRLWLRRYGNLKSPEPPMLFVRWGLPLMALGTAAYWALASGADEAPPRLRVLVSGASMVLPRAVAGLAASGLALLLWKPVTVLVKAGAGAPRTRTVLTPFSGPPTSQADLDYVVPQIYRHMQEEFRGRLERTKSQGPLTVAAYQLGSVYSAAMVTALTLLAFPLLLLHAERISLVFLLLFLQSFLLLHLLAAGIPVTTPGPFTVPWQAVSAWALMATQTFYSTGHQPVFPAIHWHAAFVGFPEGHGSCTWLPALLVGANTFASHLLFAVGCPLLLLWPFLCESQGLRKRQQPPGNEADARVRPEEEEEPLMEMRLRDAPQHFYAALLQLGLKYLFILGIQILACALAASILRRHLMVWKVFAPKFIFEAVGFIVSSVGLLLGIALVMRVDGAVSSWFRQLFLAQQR
UniProt P36871: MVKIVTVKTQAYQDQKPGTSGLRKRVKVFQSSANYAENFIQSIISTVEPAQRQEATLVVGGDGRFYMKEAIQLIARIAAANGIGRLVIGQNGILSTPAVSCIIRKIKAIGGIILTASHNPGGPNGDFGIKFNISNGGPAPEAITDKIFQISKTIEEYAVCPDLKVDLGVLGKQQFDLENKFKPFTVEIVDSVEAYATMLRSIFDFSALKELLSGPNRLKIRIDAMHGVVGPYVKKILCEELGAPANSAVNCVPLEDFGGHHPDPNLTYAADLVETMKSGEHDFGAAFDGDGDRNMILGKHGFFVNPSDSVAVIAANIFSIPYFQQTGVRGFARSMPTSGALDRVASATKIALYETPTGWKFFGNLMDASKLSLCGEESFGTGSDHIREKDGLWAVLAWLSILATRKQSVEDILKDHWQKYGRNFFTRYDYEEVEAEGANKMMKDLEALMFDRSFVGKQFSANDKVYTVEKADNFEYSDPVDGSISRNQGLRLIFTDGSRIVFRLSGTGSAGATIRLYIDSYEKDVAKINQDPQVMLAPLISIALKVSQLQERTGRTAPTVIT
UniProt Q9UBF8: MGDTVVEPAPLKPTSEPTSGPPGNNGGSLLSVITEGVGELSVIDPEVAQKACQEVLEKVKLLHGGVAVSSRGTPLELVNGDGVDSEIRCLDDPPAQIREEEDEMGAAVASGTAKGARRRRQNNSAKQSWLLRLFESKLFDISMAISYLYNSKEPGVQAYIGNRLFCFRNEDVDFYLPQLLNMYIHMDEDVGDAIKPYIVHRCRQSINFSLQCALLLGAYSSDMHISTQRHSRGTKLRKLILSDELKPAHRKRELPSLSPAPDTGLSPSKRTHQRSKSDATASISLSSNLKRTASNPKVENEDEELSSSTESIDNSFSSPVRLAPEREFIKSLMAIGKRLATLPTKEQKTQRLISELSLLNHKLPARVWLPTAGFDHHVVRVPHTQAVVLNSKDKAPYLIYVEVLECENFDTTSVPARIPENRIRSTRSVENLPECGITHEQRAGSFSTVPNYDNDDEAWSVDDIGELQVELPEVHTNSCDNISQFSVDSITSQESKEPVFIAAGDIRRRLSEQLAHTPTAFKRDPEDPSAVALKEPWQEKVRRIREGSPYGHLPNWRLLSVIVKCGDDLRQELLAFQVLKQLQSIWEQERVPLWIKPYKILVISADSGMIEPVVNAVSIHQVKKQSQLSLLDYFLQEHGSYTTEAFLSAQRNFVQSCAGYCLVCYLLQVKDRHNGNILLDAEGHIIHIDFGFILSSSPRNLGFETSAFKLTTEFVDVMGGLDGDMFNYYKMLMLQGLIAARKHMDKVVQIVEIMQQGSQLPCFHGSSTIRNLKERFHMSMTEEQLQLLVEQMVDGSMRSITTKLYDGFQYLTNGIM
UniProt Q8TCG2: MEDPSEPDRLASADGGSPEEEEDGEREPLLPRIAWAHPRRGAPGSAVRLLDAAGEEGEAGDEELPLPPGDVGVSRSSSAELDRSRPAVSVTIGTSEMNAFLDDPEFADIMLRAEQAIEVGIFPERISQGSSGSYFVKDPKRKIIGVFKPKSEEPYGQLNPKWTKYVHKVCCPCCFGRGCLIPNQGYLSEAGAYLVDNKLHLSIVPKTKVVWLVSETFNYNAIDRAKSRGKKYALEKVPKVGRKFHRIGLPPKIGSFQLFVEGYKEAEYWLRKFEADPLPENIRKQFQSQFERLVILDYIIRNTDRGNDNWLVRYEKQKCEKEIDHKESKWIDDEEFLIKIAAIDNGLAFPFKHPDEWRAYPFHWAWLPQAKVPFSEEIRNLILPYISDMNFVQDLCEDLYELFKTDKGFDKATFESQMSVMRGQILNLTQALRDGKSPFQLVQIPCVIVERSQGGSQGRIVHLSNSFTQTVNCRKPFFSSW
UniProt Q96CS7: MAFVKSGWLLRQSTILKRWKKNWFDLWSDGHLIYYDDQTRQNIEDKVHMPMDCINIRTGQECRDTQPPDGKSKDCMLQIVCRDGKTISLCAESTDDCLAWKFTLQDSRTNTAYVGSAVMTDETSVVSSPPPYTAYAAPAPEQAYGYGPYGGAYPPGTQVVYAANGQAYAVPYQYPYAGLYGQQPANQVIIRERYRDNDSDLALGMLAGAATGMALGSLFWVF

Assays:
Experiment in all cases: log2 fold change, soluble protein after heating vs DMSO (PISA); higher = thermal stabilisation; K562 cells, 10 uM, 30 min; active = over 0.2 and 3.5 SD of the protein, either way, in both replicates (recomputed)
[1] = compound: CC[C@H](C)N1C=C(C2=C(C=C(C=C21)C3=CN=C(C=C3)N4CCNCC4)C(=O)NCC5=C(C=C(NC5=O)C)C)C
In short: (§1)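 K562 cells (2×10^6 cells/mL) were treated with 10 μM compound for 30 min, and aliquots were heated for 3 min over 48°C-58°C. Pooled aliquots were extracted in PBS with 0.5% NP-40 at 4°C, and the supernatant after 21,000xg for 90 min was measured by TMTpro 16plex LC-MS/MS with channel sums equalised. Reported thermal stability, relative to control samples and from duplicates, is a log2 fold change.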

epoxomicin = compound: CC[C@H](C)[C@@H](C(=O)N[C@@H]([C@@H](C)O)C(=O)N[C@@H](CC(C)C)C(=O)[C@]1(CO1)C)NC(=O)[C@H]([C@@H](C)CC)N(C)C(=O)C [epoxomicin]
In short: as §1

[2] = compound: CCn1c(C(=O)N(C2CC2)C2CC2)cc2c3c(ncn3C)c(Nc3cc(C)n(C)n3)nc21
In short: as §1

[3] = compound: CCn1cc(-c2ccnc3[nH]c(-c4cccc(CN(C)C)c4)cc23)c(-c2ccc(NC(=O)N(C)C)cc2)n1
In short: as §1

[4] = compound: CN(C)CC(=O)Nc1ccc2[nH]c(=O)c3ccccc3c2c1
In short: as §1

[5] = compound: CN1C2=C(C3=C1C(=O)N(N=C3)CC4=CC(=CC=C4)N)SC(=C2)S(=O)C
In short: as §1

[6] = compound: CN1CCC(CNc2ccc3ncc(-c4cccc(OC(F)(F)F)c4)n3n2)CC1
In short: as §1

volasertib = compound: CC[C@@H]1C(=O)N(C)c2cnc(Nc3ccc(C(=O)N[C@H]4CC[C@H](N5CCN(CC6CC6)CC5)CC4)cc3OC)nc2N1C(C)C [volasertib]
In short: as §1

rosiglitazone = compound: CN(CCOC1=CC=C(C=C1)C[C@H]2C(=O)NC(=O)S2)C3=CC=CC=N3 (racemic) [rosiglitazone]
In short: as §1

[7] = compound: CC[C@@H]1C(=O)N(C)c2cnc(Nc3ccc(C(=O)NC4CCN(C)CC4)cc3OC)nc2N1C1CCCC1
In short: as §1

Measured: log2 fold change

PIK3C2A (UniProt O00443)
inactive: [1] 0.009 | epoxomicin -0.169 | [2] -0.105

PHF14 (UniProt O94880)
inactive: [3] 0 | [4] 0.088 | [5] 0.091 | [6] 0.1

PIAS1 isoform 2 (UniProt O75925)
inactive: volasertib -0.54 | rosiglitazone 0.1

PGD (UniProt K7EM49)
inactive: volasertib 0.108 | epoxomicin -0.197 | [3] -0.336 | [4] -0.124 | rosiglitazone -0.043 | [6] -0.3

PHYKPL (UniProt Q8IUZ5)
inactive: volasertib 0.017 | [1] 0.077 | epoxomicin -0.155 | [2] -0.035 | [3] 0.067 | [5] -0.219 | [6] -0.152

PLD6 (UniProt Q8N2A8)
inactive: volasertib 0.075 | epoxomicin -0.023 | [4] 0.051

PINX1 (UniProt Q96BK5)
inactive: volasertib 0.37 | [1] 0.05 | epoxomicin -0.167 | [2] 0.032 | [3] 0.358 | [4] -0.159 | rosiglitazone -0.419 | [5] 0.337 | [6] 0.406

PKHD1 (UniProt P08F94)
inactive: [7] 0.066 | [4] -0.062

PHC2 isoform 5 (UniProt Q8IXK0)
inactive: [7] 0.059 | epoxomicin -0.233 | [4] 0.025 | rosiglitazone -0.153 | [5] 0.234

PKMYT1 (UniProt Q99640)
inactive: [7] -0.141 | epoxomicin -0.222 | [2] -0.136

PLCG2 (UniProt P16885)
inactive: [7] 0.04 | [2] -0.06 | rosiglitazone 0.06

PIK3CG (UniProt P48736)
inactive: [7] 0.047 | epoxomicin 0.02 | [2] 0.168

PLEKHA5 isoform 6 (UniProt Q9HAU0)
inactive: [7] -0.13 | epoxomicin -0.095 | [2] -0.042 | [3] 0.05 | [4] -0.092 | [6] -0.114

PHETA1 isoform 4 (UniProt Q8N4B1)
inactive: volasertib 0.144 | [3] 0.013 | [5] -0.147 | [6] -0.031

PKN2 (UniProt Q16513)
active: [6] -0.288
inactive: volasertib -0.135 | [1] 0.159 | epoxomicin -0.027 | [3] -0.046 | [4] 0.009 | [5] 0.027

PHLPP1 (UniProt O60346)
inactive: epoxomicin 0.129 | [5] 0.185

PKP4 (UniProt Q99569)
inactive: [7] -0.234 | epoxomicin -0.034 | [2] 0.265

PIK3CA (UniProt P42336)
inactive: [1] 0.151 | epoxomicin -0.053 | [2] -0.019 | rosiglitazone -0.001

PLEK (UniProt P08567)
inactive: volasertib -0.03 | [2] 0.079 | [4] -0.297

PIAS4 (UniProt Q8N2W9)
inactive: volasertib -0.406 | epoxomicin 0.11 | [3] -0.064 | [5] 0.173 | [6] 0.062

PFKM (UniProt F8VTQ3)
inactive: volasertib -0.292 | [3] 0.123 | rosiglitazone 0.176 | [6] 0.057

PIBF1 (UniProt Q8WXW3)
inactive: [2] -0.051 | rosiglitazone -0.052 | [5] 0.534

PIM1 isoform 2 (UniProt P11309)
inactive: [3] -0.068
active: [6] 2.26

PFKFB1 (UniProt P16118)
inactive: volasertib -0.023 | [1] 0.044 | epoxomicin 0.056 | [3] 0.269 | rosiglitazone 0.033 | [6] 0.195

PIMREG (UniProt Q9BSJ6)
inactive: [7] 0.224 | [3] -0.116 | [6] 0.118

PIGO (UniProt Q8TEQ8)
inactive: [1] -0.051 | epoxomicin 0 | [2] -0.054 | [4] 0.017 | rosiglitazone 0.107

PKLR (UniProt F8W6W2)
inactive: volasertib 0.026 | [4] 0.291 | rosiglitazone 0.385

PIP5K1C isoform 3 (UniProt O60331)
inactive: epoxomicin -0.046 | [2] -0.183 | [3] -0.102 | rosiglitazone 0.139 | [5] -0.046 | [6] -0.469

PEX26 (UniProt Q7Z412)
inactive: volasertib -0.087 | [1] 0.058 | epoxomicin 0.103 | [2] -0.086 | [3] -0.034 | [4] -0.136 | [5] -0.103 | [6] 0.067

PGM1 isoform 2 (UniProt P36871)
inactive: [2] 0.383 | [5] 0.228

PIGX isoform 2 (UniProt Q8TBF5)
inactive: [7] 0.314 | epoxomicin -0.007 | [2] -0.025 | [3] -0.027 | [4] -0.003 | rosiglitazone -0.011 | [5] 0.031 | [6] 0.048

PI4KB isoform 2 (UniProt Q9UBF8)
inactive: [7] 0.096 | [2] 0.017 | [3] 0.002 | [6] -0.015

PHRF1 (UniProt Q9P1Y6)
inactive: volasertib 0.373

PHOSPHO2 (UniProt Q8TCD6)
inactive: [2] 0.017 | [4] -0.022 | rosiglitazone -0.032 | [5] -0.06

PKNOX1 (UniProt P55347)
inactive: [2] -0.137 | [5] 0.004

Taken from above (8 entries):
PIGO (UniProt Q8TEQ8)
inactive: [1] -0.051 | epoxomicin 0 | [2] -0.054 | [4] 0.017 | rosiglitazone 0.107

PKLR (UniProt F8W6W2)
inactive: volasertib 0.026 | [4] 0.291 | rosiglitazone 0.385

PIP5K1C isoform 3 (UniProt O60331)
inactive: epoxomicin -0.046 | [2] -0.183 | [3] -0.102 | rosiglitazone 0.139 | [5] -0.046 | [6] -0.469

PEX26 (UniProt Q7Z412)
inactive: volasertib -0.087 | [1] 0.058 | epoxomicin 0.103 | [2] -0.086 | [3] -0.034 | [4] -0.136 | [5] -0.103 | [6] 0.067

PGM1 isoform 2 (UniProt P36871)
inactive: [2] 0.383 | [5] 0.228

PIGX isoform 2 (UniProt Q8TBF5)
inactive: [7] 0.314 | epoxomicin -0.007 | [2] -0.025 | [3] -0.027 | [4] -0.003 | rosiglitazone -0.011 | [5] 0.031 | [6] 0.048

PI4KB isoform 2 (UniProt Q9UBF8)
inactive: [7] 0.096 | [2] 0.017 | [3] 0.002 | [6] -0.015

PHRF1 (UniProt Q9P1Y6)
inactive: volasertib 0.373

Remaining list, next part.

PI4K2B (UniProt Q8TCG2)
inactive: [7] -0.147 | [1] -0.039 | [3] 0.045 | [4] -0.024 | [5] 0.079 | [6] -0.1

PLEKHB2 isoform 2 (UniProt Q96CS7)
inactive: volasertib 0.079 | rosiglitazone -0.027 | [5] -0.079

PICK1 (UniProt Q9NRD5)
inactive: [1] 0 | epoxomicin -0.09

PLA2G4B isoform 6 (UniProt P0C869)
inactive: volasertib -0.437 | [1] 0.039 | [3] 0.049 | [4] 0.023 | rosiglitazone 0.183 | [5] -0.031 | [6] -0.05

PEX5 isoform 4 (UniProt P50542)
inactive: epoxomicin 0.2 | [4] -0.017 | [5] 0.366
